Values from PubChem BioAssay AID1259405 (NCATS, 2018)

- Aim: 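Mouse-designed siRNAs used to find CHO productivity engineering targets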 (primary screen)
- Cells: Chinese hamster CHO-K1 ovary cells with stable secreted eGFP expression
- Reagents: single siRNA against mouse genes, 0.8 pmol siRNA per well (2 µl of 400 nM stock)
- Timing: 3 days
- Measured: 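Per-well intracellular GFP measured by laser scanning cytometry, plus viability from ATP luminescence, each relative to plate median of non-targeting control wells, in %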
- Scale: GFP, % of control: higher = more GFP per well, higher productivity; viability (ATP), % of control: higher = more viable cells (more ATP)
- Rule for the call: 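a knock-down is called active if GFP reaches 120% or more of non-targeting control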
Shown is one part, drawn at random, of about 50,000 deposited reagents. About 4,000 of all reagents (8%) count as active. 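Mouse siRNA library applied to hamster cells; one well for each siRNA.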 The numbers tell different reagents against one gene apart.

no.	gene knocked down	reagent	GFP, % of control	viability (ATP), % of control	outcome
1	Unc5d	1	81.2	89.9	inactive
2	Unc5d	2	43.5	73.5	inactive
3	Unc5d	3	55.5	69.8	inactive
4	Rassf5	1	29	39.4	inactive
5	Rassf5	2	79.4	84.5	inactive
6	Rassf5	3	49.7	49.7	inactive
7	Ipmk	1	49.8	50.7	inactive
8	Lypd6b	1	103	87	inactive
9	Lypd6b	2	67	75.8	inactive
10	Lypd6b	3	84.2	58.9	inactive
11	H2-Q7	1	109	89	inactive
12	H2-Q7	2	109	89.3	inactive
13	H2-Q7	3	92.7	74.6	inactive
14	Tbp	1	80.3	97.2	inactive
15	Tbp	2	49.6	33.9	inactive
16	Spire2	1	85.3	77.5	inactive
17	Spire2	2	50.6	62.3	inactive
18	Spire2	3	64.6	60.3	inactive
19	Adat1	1	68.1	56.8	inactive
20	Adat1	2	63	59.5	inactive
21	Adat1	3	191	188	active
22	BC023105	1	64.2	63.3	inactive
23	BC023105	2	32.7	47.4	inactive
24	BC023105	3	44.7	33.8	inactive
25	Cul4b	1	90.7	85.4	inactive
26	Cul4b	2	85.3	61.8	inactive
27	Cul4b	3	73.8	79	inactive
28	Cav1	1	35.9	26.7	inactive
29	Cav1	2	87.4	88	inactive
30	Tmprss11e	1	48.8	50.3	inactive
31	Tmprss11e	2	68.8	74.2	inactive
32	Tmprss11e	3	109	58.7	inactive
33	2310002L09Rik	1	83	103	inactive
34	2310002L09Rik	2	30.6	33.5	inactive
35	2310002L09Rik	3	69	66.7	inactive
36	Wdr37	1	17.1	64.8	inactive
37	Wdr37	2	59.4	76.3	inactive
38	Wdr37	3	64.8	70	inactive
39	Tiparp	1	73.1	37.1	inactive
40	Tiparp	2	24.8	35.6	inactive
41	Tiparp	3	49.8	59.4	inactive
42	U2af2	1	117	131	inactive
43	U2af2	2	65.7	46.3	inactive
44	U2af2	3	68	80.7	inactive
45	Spata6	1	73.1	71.5	inactive
46	Spata6	2	108	131	inactive
47	Spata6	3	143	122	active
48	Klrc3	1	38.1	28.2	inactive
49	Klrc3	2	105	93.7	inactive
50	Klrc3	3	62	49.7	inactive
51	Raet1a	1	71.7	73.6	inactive
52	Raet1a	2	127	91.1	active
53	Raet1a	3	66	77.4	inactive
54	Zfp456	1	23.7	61.2	inactive
55	Zfp456	2	74.5	76.6	inactive
56	Zfp456	3	97.7	73	inactive
57	Myh8	1	33.2	56.9	inactive
58	Myh8	2	73.3	71.8	inactive
59	Pcdhgb4	1	87.7	75.2	inactive
60	Pcdhgb4	2	58.5	84.2	inactive
61	Pcdhgb4	3	67.3	35.9	inactive
62	Rab6b	1	137	128	active
63	Rab6b	2	62.2	44.7	inactive
64	Rab6b	3	60.1	85.2	inactive
65	Gm11507	1	66.6	42.3	inactive
66	Gm11507	2	60.9	77.2	inactive
67	Gm11507	3	144	51.2	active
68	Wfs1	1	90.3	67.3	inactive
69	Wfs1	2	44.5	59	inactive
70	Wfs1	3	79.6	76.8	inactive
71	Gpat3	1	53.6	74.7	inactive
72	Gpat3	2	98.1	73.2	inactive
73	Gpat3	3	114	90.7	inactive
74	Or5an1b	1	70.1	86.8	inactive
75	Or5an1b	2	71	78	inactive
76	Or5an1b	3	60.3	63.2	inactive
77	Atad5	1	68.8	85.3	inactive
78	Atad5	2	74.7	54.1	inactive
79	Atad5	3	65	81.9	inactive
80	Fbxw17	1	101	101	inactive
81	Fbxw17	2	82.8	75.5	inactive
82	Fbxw17	3	105	96.8	inactive
83	Ano5	1	68.7	50.1	inactive
84	Ano5	2	76.2	64.1	inactive
85	Ano5	3	78.9	84.9	inactive
86	Nlrp4e	1	59	57.2	inactive
87	Nlrp4e	2	90	85.1	inactive
88	Nlrp4e	3	70.6	69.5	inactive
89	Xiap	1	86.4	94.6	inactive
90	Xiap	2	98.2	89.5	inactive
91	Xiap	3	124	74.8	active
92	Slc35b3	1	48.8	47.9	inactive
93	Slc35b3	2	82.6	78.3	inactive
94	Slc35b3	3	84.6	93.9	inactive
95	Zfp638	1	136	58.4	active
96	Zfp638	2	75.9	74.4	inactive
97	Zfp638	3	51.2	41.3	inactive
98	Rhbdf2	1	81.2	28.9	inactive
99	Rhbdf2	2	45.1	31.9	inactive
100	Rhbdf2	3	74.7	64.9	inactive
101	Six3os1	1	84	90.9	inactive
102	Six3os1	2	95.7	56.4	inactive
103	Six3os1	3	95.6	99.9	inactive
104	Adamtsl2	1	121	98.7	active
105	Adamtsl2	2	104	87.8	inactive
106	Arhgef7	1	107	73.6	inactive
107	Arhgef7	2	174	56.2	active
108	Arhgef7	3	52.7	54.1	inactive

Called active, among the entries above:
gene knocked down	reagent	GFP, % of control	viability (ATP), % of control	outcome
Adat1	3	191	188	active
Spata6	3	143	122	active
Raet1a	2	127	91.1	active
Rab6b	1	137	128	active
Gm11507	3	144	51.2	active
Xiap	3	124	74.8	active
Zfp638	1	136	58.4	active
Adamtsl2	1	121	98.7	active
Arhgef7	2	174	56.2	active
